Results reported in PubChem BioAssay AID1671190 (National Center for Advancing Translational Sciences (NCATS), 2021).
The campaign covered roughly 580,000 compounds. About 6,100 (1.1%) were called active. The shares of active, inactive and inconclusive entries below differ from those in the screen. Calls follow the shape of the dose curve; as a rule, active = well fitted inhibition curve with a large enough effect; inconclusive = small, poorly fitted or top-dose-only effect, or another doubt; inactive = no such curve, though single readings can be large or run the other way. Potencies of inconclusive entries are doubtful fits and often do not repeat.

Chains of the proteins cited; added tags and fusions are not shown. Lines headed by an entry give the natural chain unless they say otherwise; changes in a name come on top.
UniProt P18054: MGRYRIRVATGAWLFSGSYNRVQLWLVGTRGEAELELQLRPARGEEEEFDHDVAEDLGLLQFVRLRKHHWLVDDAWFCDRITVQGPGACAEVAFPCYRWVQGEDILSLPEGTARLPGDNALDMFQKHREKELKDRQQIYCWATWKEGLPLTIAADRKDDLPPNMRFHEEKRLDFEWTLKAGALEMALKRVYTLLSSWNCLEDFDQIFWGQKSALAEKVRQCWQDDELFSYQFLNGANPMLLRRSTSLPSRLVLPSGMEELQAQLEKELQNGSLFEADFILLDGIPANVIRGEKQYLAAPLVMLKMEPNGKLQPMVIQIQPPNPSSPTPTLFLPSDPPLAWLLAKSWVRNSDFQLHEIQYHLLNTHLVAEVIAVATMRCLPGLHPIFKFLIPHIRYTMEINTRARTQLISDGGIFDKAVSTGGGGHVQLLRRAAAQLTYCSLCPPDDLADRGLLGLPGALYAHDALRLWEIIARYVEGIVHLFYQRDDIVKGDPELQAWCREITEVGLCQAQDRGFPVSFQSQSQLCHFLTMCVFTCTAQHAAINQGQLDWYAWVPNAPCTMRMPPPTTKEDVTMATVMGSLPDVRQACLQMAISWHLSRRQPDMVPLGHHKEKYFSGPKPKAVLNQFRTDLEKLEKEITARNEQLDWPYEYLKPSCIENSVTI

molecular target: Polyunsaturated fatty acid lipoxygenase ALOX12 (Homo sapiens) (UniProt P18054); assay: Primary qHTS assay for inhibitors of human arachidonate 12S-lipoxygenase (ALOX12): Round 2; settings: purified 12hLO, xylenol orange hydroperoxide absorbance; series mostly up to 108 µM
Outline: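 Purified human 12hLO (150 nM final) in 25 mM Hepes, 0.01% Triton X-100, pH 7.0 was preincubated 15 min at room temperature with compound. Then 40 uM arachidonic acid was added, 30 min. Hydroperoxide was read by Fe-XO absorbance ratio 573/405 nm.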
Potency is read from the fitted curve at half-maximal effect.

Row | SMILES | Potency
1 | CC(=O)c1c(C)[nH]c(C(=O)C(C)OC(=O)c2cnccn2)c1C (stereo not drawn) | inconclusive: 12.6 µM [inhibitor, full curve]
2 | O=C(Nc1cccc(C(F)(F)F)c1)c1cn2c3c(cccc3c1=Nc1cccc(C(F)(F)F)c1)CCC2 | inconclusive: 112 µM [inhibitor, single point]
3 | CN1CC(=O)N(c2ccccc2F)Cc2c1ncnc2N1CCc2ccccc2C1 | inconclusive: 28.2 µM [inhibitor, full curve]
4 | CC(C)CC(NC(=O)C(CC(C)C)NC(=O)OC(C)(C)C)C(=O)O (stereo not drawn) | inconclusive: 0.178 µM [inhibitor, full curve, poor fit]
5 | CN(CCc1ccc(Cl)c(Cl)c1)CCN1CCCC1 | inconclusive: 25.1 µM [inhibitor, partial curve, poor fit]
6 | O=C(COc1ccccc1)NC(=S)Nc1cccc2c(O)cccc12 | active: 44.7 µM
7 | C[C@H](CO)N1C[C@H](C)[C@@H](CN(C)S(=O)(=O)c2ccc3c(c2)OCCCO3)OCc2cnnn2CCCC1=O | inactive
8 | COc1ccc(-c2ccc(C(=O)N[C@H]3CCOC[C@H]3C3CCOCC3)o2)cc1 | inactive
9 | Cc1ccc2c(CN(C)Cc3cccs3)cc(=O)oc2c1C | inconclusive: 35.5 µM [inhibitor, partial curve, poor fit]
10 | COC(=O)c1ccc2nc(-c3ccc(Cl)cc3)c(Cc3ccccc3OC)n2c1 | inconclusive: 50.1 µM [inhibitor, partial curve, poor fit]
11 | Nc1nc(NC2CCCC2)cc(=O)[nH]1 | inconclusive: 89.1 µM [inhibitor, partial curve, poor fit]
12 | CCSC(=Nc1ccccc1)C1=C(O)COC1=O | inconclusive: 35.5 µM [inhibitor, partial curve, poor fit]
13 | O=C(NCCCN1CCCC1)c1cccnc1 | inconclusive: 17.8 µM [inhibitor, partial curve, poor fit]
14 | Cc1ccc(NC(=O)Cn2c(CCC(=O)O)ccc2-c2ccc(Cl)cc2)cc1 | inactive
15 | COc1ccc(S(=O)(=O)N2CCN(c3ccccn3)CC2)cc1OC | inactive
16 | O=C1CC(c2ccccc2)CC(O)=C1C=NCCO (stereo not drawn) | inconclusive: 141 µM [inhibitor, single point]
17 | CCCCOc1ccc(CN(CCO)CCO)cc1[N+](=O)[O-] | inactive
18 | CCC(C)NC(=O)CC1Sc2ncccc2N(C)C1=O (stereo not drawn) | inconclusive: 12.6 µM [inhibitor, partial curve]
19 | COc1cccc(CN2CCN(C(=O)c3ccco3)CC2)c1OC | inconclusive: 0.562 µM [inhibitor, full curve, poor fit]
20 | Cc1ccc(N(C(=O)CNC(=O)c2ccco2)C(C(=O)NC2CCCCC2)c2cccnc2)cc1 (stereo not drawn) | inconclusive: 70.8 µM [inhibitor, partial curve, poor fit]
21 | Cn1cccc1/C=C1\SC(=Nc2ccccc2)NC1=O | inconclusive: 79.4 µM [inhibitor, single point]
22 | Cc1cccc(/C=C(/C(=O)N2CCCCCC2)c2cccs2)c1 | inconclusive: 0.447 µM [inhibitor, full curve, poor fit]

Among those listed so far, these contain a COOH group.
Row | SMILES | Potency
4 | CC(C)CC(NC(=O)C(CC(C)C)NC(=O)OC(C)(C)C)C(=O)O (stereo not drawn) | inconclusive: 0.178 µM [inhibitor, full curve, poor fit]
14 | Cc1ccc(NC(=O)Cn2c(CCC(=O)O)ccc2-c2ccc(Cl)cc2)cc1 | inactive

Continued.

Row | SMILES | Potency
23 | CC(NC(=O)c1cc(C2CC2)nc2ccccc12)c1ccccc1 (stereo not drawn) | inconclusive: 56.2 µM [inhibitor, partial curve, poor fit]
24 | O=c1[nH]c2ccccc2nc1CCc1ccccc1 | inactive
25 | Cc1ccccc1C(=O)N1CCCCC12Cc1ccccc1NC2=O (stereo not drawn) | inconclusive: 126 µM [inhibitor, single point]
26 | CN(Cc1ccco1)C(=O)c1ccc(-c2ccc(N3CCCCCC3)nc2)cc1 | inactive
27 | N#Cc1ccc(/C=C2/CCOc3ccc(Br)cc3C2=O)cc1 | inconclusive: 14.1 µM [inhibitor, full curve, poor fit]
28 | COc1cc(CNCCN2CCOCC2)ccc1OCc1ccccc1Cl | inconclusive: 44.7 µM [inhibitor, partial curve, poor fit]
29 | Cc1ccc(NC(=O)CCNCc2ccco2)cc1S(=O)(=O)N(C)C | inconclusive: 1 µM [inhibitor, full curve, poor fit]
30 | Cc1oc(-c2ccccc2)nc1CC(=O)NCCc1cccc(F)c1 | inconclusive: 8.91 µM [inhibitor, partial curve, poor fit]
31 | O=C(Nc1ccccc1)N1CCN2C(=O)c3ccccc3C12c1ccccc1 (stereo not drawn) | inconclusive: 10 µM [inhibitor, partial curve, poor fit]
32 | Cc1ccc(C(=O)NC(=S)Nc2ccc(CN3CCCCC3)cc2)c(C)c1 | inactive
33 | CCS(=O)(=O)N1CCc2cc(C(=O)CSc3nnc(C4CC4)n3Cc3ccccc3)ccc21 | inactive
34 | Cc1ccc(S(=O)(=O)N(C)CC2CCOC2)cc1C (stereo not drawn) | inactive
35 | CN1CCCC(OC(=O)CCCC(=O)OC2CCCN(C)C2)C1 (stereo not drawn) | inconclusive: 39.8 µM [inhibitor, partial curve, poor fit]
36 | CCCOCCNC(=O)c1c(C)noc1-c1ccc2c(c1)OCO2 | inconclusive: 8.91 µM [inhibitor, full curve]
37 | O=C(Nc1ccc(F)cc1)c1nn(-c2ccccc2)c(=O)cc1Cl | inactive
38 | COc1ccccc1CNc1ncnc2c1CN(C1CCCNCC1)C(=O)CN2C (stereo not drawn) | inconclusive: 3.59 µM [inhibitor, single point]
39 | COCc1c(C(=O)Nc2ccc(S(=O)(=O)C(F)F)cc2)oc2ccccc12 | inactive
40 | NC(=O)[C@@H](Cc1ccccc1)NC(=O)C1=C[C@@H](NS(=O)(=O)c2cccc(C(F)(F)F)c2)[C@@H](O)[C@H](O)C1 | inactive
41 | Cc1ccc(N(CC(=O)Nc2ccc(Br)c(C)c2)S(=O)(=O)c2c(C)[nH]c(=O)[nH]c2=O)cc1 | inconclusive: 44.7 µM [inhibitor, partial curve, poor fit]
42 | COC(=O)/C=C/c1cccc([C@H]2[C@@H]3C=CC[C@@H](C)[C@@H]3C(=O)N2Cc2ccccc2)c1 | inconclusive: 39.8 µM [inhibitor, partial curve, poor fit]
43 | Nc1ncnc(Nc2cccc(Cl)c2)c1[N+](=O)[O-] | inconclusive: 35.5 µM [inhibitor, single point]
